The text below walks through data of PMC8579195.

Amino acid sequences for entries named in this document (tags omitted).
UniProt Q15388: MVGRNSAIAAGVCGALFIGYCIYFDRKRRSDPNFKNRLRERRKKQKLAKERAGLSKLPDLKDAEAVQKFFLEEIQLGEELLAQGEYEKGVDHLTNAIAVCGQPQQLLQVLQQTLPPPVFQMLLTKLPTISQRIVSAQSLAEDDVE

Numbering of substitutions follows the chain as printed. No constants are given. Whether binding was seen depends on the method and setting. For some assays here: Binding seen in cells or lysates may run through a third protein. Some entries that bind do so weakly or less than the wild type. Where a sequence is shown, tags or fusion partners need not be part of it.

One assay concerns the target T1, PEX19-V5 (human) (UniProt P40855).
T1 sequence: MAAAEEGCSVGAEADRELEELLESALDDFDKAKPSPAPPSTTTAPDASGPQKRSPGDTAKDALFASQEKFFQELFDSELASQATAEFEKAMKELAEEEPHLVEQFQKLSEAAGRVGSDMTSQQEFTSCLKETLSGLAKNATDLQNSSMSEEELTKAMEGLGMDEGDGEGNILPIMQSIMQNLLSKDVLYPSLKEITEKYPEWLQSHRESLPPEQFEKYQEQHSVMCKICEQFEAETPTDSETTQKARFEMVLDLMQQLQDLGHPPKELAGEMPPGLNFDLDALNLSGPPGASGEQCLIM
Put plainly: proximity ligation; Duolink PLA with anti-Myc and anti-V5 primary antibodies in fixed HeLa cells (WT or stably expressing GFP-SKL) transfected for 24 h.

Assay [1] has as its target T2, MARCH5-Myc (human) (UniProt Q9NX47).
T2 sequence: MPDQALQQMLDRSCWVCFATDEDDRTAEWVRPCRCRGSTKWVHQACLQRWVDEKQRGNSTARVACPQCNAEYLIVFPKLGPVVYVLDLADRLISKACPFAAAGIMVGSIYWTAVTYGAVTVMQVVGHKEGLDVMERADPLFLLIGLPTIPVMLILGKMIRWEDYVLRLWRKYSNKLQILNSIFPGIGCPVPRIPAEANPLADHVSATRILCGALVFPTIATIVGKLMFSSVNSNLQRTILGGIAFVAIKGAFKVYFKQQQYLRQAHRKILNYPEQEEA
Put plainly: co-IP; HEK293T cotransfected; IP of MARCH5-Myc (Fig. 2A, 2F; IP side not told for Fig. 2D); 50 μM MG132 for 6 h in Fig. 2D and 2F; lysis 50 mM Tris, 200 mM NaCl, 1% NP-40, pH 7.5.

Assay [2] concerns the target T3, MARCH5-Myc (human), Q9NX47.
T3 chain: T2 sequence
Description: proximity ligation; Duolink PLA with anti-Myc and anti-V5 primary antibodies in fixed HeLa cells (WT or stably expressing GFP-SKL) transfected for 24 h. The conditions noted are these: remark: other sources report otherwise.

In assay [3] the target is T3, MARCH5-Myc (human), Q9NX47. Put plainly: co-IP; HEK293T cotransfected; IP of MARCH5-Myc (Fig. 2A, 2F; IP side not told for Fig. 2D); 50 μM MG132 for 6 h in Fig. 2D and 2F; lysis 50 mM Tris, 200 mM NaCl, 1% NP-40, pH 7.5. As to conditions: remark: other sources report otherwise.
The target in a further assay is T4, PEX19-3×FLAG (human) (UniProt P40855).
T4 sequence: T1 sequence
Put plainly: co-IP; HEK293T cotransfected with PEX19-3×FLAG and MARCH5-mCherry-Myc variants, 36 h; IP of PEX19-3×FLAG.

Assay [4] addresses T2, MARCH5-Myc (human). Put plainly: co-IP; HeLa cotransfected with MARCH5-Myc and PEX3-V5 for 18 h, with or without 10 μM MG132 for 6 h; IP and IB with anti-Myc and anti-V5.
Assay [5] deals with T2, MARCH5-Myc (human). Description: proximity ligation; Duolink PLA with anti-Myc and anti-V5 primary antibodies in fixed HeLa cells (WT or stably expressing GFP-SKL) transfected for 24 h.
Assay [6] addresses T5, PEX19-3×FLAG (human), P40855.
T5 chain: T1 sequence
Description: co-IP; HEK293T cotransfected with PEX19-3×FLAG and MARCH5-mCherry-Myc variants, 36 h; IP of PEX19-3×FLAG. As to conditions: remark: other sources report otherwise.

A further assay concerns the target T6, V5-PEX19 (human), P40855.
T6 chain: T1 sequence
Put plainly: relocalisation in cells (immunofluorescence); V5-PEX19 or NLS-V5-PEX19 coexpressed with MARCH5-Myc or TOMM20-Myc in HeLa cells for 24 h; stained for Myc and V5. The conditions noted are these: remark: other sources report otherwise.

Consider TOMM20-Myc (from UniProt Q15388 1-145), for which the binding entry with PEX19-V5 (human) is “no binding”.

B1: PEX3(46–373)-3×FLAG (domain or fragment, UniProt P56589 46-373)
chain: AEYIAQARRQYHFESNQRTCNMTVLSMLPTLREALMQQLNSESLTALLKNRPSNKLEIWEDLKIISFTRSTVAVYSTCMLVVLLRVQLNIIGGYIYLDNAAVGKNGTTILAPPDVQQQYLSSIQHLLGDGLTELITVIKQAVQKVLGSVSLKHSLSLLDLEQKLKEIRNLVEQHKSSSWINKDGSKPLLCHYMMPDEETPLAVQACGLSPRDITTIKLLNETRDMLESPDFSTVLNTCLNRGFSRLLDNMAEFFRPTEQDLQHGNSMNSLSSVSLPLAKIIPIVNGQIHSVCSETPSHFVQDLLTMEQVKDFAANVYEAFSTPQQLEK
Take B1: the binding entry with MARCH5-Myc (human) [1] was “binds”.

B2: PEX19-V5, P40855 1-299 (protein)
chain: T1 sequence
For B2, the binding entry in [2] and in assay [3] was “binds” throughout.

B3: MARCH5 TM region (residues 70-279)-mCherry-Myc (domain or fragment, UniProt Q9NX47 70-278)
chain: AEYLIVFPKLGPVVYVLDLADRLISKACPFAAAGIMVGSIYWTAVTYGAVTVMQVVGHKEGLDVMERADPLFLLIGLPTIPVMLILGKMIRWEDYVLRLWRKYSNKLQILNSIFPGIGCPVPRIPAEANPLADHVSATRILCGALVFPTIATIVGKLMFSSVNSNLQRTILGGIAFVAIKGAFKVYFKQQQYLRQAHRKILNYPEQEEA
As to B3, the binding entry with PEX19-3×FLAG (human) was “binds”.

B4: PEX3-V5 (protein, UniProt P56589 1-373)
chain: MLRSVWNFLKRHKKKCIFLGTVLGGVYILGKYGQKKIREIQEREAAEYIAQARRQYHFESNQRTCNMTVLSMLPTLREALMQQLNSESLTALLKNRPSNKLEIWEDLKIISFTRSTVAVYSTCMLVVLLRVQLNIIGGYIYLDNAAVGKNGTTILAPPDVQQQYLSSIQHLLGDGLTELITVIKQAVQKVLGSVSLKHSLSLLDLEQKLKEIRNLVEQHKSSSWINKDGSKPLLCHYMMPDEETPLAVQACGLSPRDITTIKLLNETRDMLESPDFSTVLNTCLNRGFSRLLDNMAEFFRPTEQDLQHGNSMNSLSSVSLPLAKIIPIVNGQIHSVCSETPSHFVQDLLTMEQVKDFAANVYEAFSTPQQLEK
For B4, the binding result in the assay with MARCH5-Myc (human) [4] and with MARCH5-Myc (human) [5] was “binds” throughout.

B5: PEX3-3×FLAG (protein, UniProt P56589 1-373)
chain: B4 chain
As for B5, in the assay with MARCH5-Myc (human) [1], the binding result is “binds”.

B6: MARCH5(HW)-mCherry-Myc, Q9NX47 1-278 (enzyme)
chain: T2 sequence with H43W
On to B6, for which, in assay [6], the binding result is reported as “binds”.

B7: MARCH5-Myc, Q9NX47 1-278 (enzyme)
chain: T2 sequence
Consider B7, for which the binding entry in the assay with V5-PEX19 (human), P40855 was “binds”.

B8: MARCH5-mCherry-Myc, Q9NX47 1-278 (enzyme)
chain: T2 sequence
Regarding B8, the binding result in assay [6] is given as “binds”.
